Source: PubChem BioAssay AID1259308 (NCATS, 2017)
Here is an unselected part of about 59,000 reagents. About 1,510 of all reagents (2.6%) were called active. 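Calls use total luciferase alone and ignore viability, so some active siRNAs may act by altering cell number.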 Entries without a mark were called inactive. Reagents against one gene are numbered here. Further read-outs or replicates are left out here. No sequences are given here.

Screen: 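Genes whose loss raises luciferase production in HEK293 cells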 (primary screen)
System: human HEK293 embryonic kidney cells stably expressing firefly luciferase (HEK-CMV-Luc2-Hygro)
Knock-down reagent: single siRNA against human genes, 0.8 pmol siRNA per well
Time to read-out: 72 h
Measurement: 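Reporter luminescence and viable-cell signal on separate replicate plates, given as percent of non-targeting control and median/MAD z-scores, plus per-cell luciferase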
Direction: total luciferase, z-score: higher = more reporter protein produced
Call rule: 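An siRNA counts as active if its total luciferase robust z-score exceeds 3; genes with two or more such siRNAs out of three were retested with fresh siRNAs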
Meaning of the calls: active = raised luciferase; inactive = no rise

For TMEM63C (GeneID 57156) #1, how do the results read?
total luciferase, z-score: 0.215

With TMEM63C (GeneID 57156) #2, what does the deposit list?
total luciferase, z-score: -0.283

How did the screen score TMEM63C (GeneID 57156) #3?
total luciferase, z-score: 0.921

What did the screen give for LEO1 (GeneID 123169) #1?
total luciferase, z-score: -1.52

With LEO1 (GeneID 123169) #2, what was measured?
total luciferase, z-score: 2.61

What did the screen give for LEO1 (GeneID 123169) #3?
total luciferase, z-score: -0.658

With TAF12 (GeneID 6883) #1, how do the results read?
total luciferase, z-score: 1.11

Which result is listed for TAF12 (GeneID 6883) #2?
total luciferase, z-score: 1.2

Which result is listed for TAF12 (GeneID 6883) #3?
total luciferase, z-score: 0.79

What is on record for LSG1 (GeneID 55341) #1?
total luciferase, z-score: -1.89

What did the screen give for LSG1 (GeneID 55341) #2?
total luciferase, z-score: -0.0336

Which result is listed for LSG1 (GeneID 55341) #3?
total luciferase, z-score: 4.95 (active)

No new results follow: an excerpt of the list.
TAF12 (GeneID 6883) #3: total luciferase, z-score = 0.79
LSG1 (GeneID 55341) #1: total luciferase, z-score = -1.89
